Assay results from PMC7819943, “Rice protein-binding microarrays: a tool to detect cis-acting elements near promoter regions in rice”.
This is one part of the list.

The chains behind the UniProt entries cited, without tags or fusion partners.
UniProt Q0JBA9, entry or part of it: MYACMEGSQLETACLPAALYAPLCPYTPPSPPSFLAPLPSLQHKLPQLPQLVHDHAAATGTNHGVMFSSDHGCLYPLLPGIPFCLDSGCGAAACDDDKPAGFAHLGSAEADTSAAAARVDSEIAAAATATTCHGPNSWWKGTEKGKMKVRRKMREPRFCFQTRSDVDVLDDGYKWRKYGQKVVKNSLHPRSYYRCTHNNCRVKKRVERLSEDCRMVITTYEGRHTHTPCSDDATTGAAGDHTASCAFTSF

biological target: OsWRKY34 (Oryza sativa, UniProt Q0JBA9 1-250); experiment: protein-binding microarray (RPBM); PBS, 2% BSA, 51.3 ng/ul salmon testes DNA, 50 uM zinc acetate, 200 nM TF, 25 C, 1 h; high values mean tight binding; conditions: protein: recombinant; tags: N-terminal polyhistidine and DsRed monomer fusion (pET32a); label: CyDye5-dUTP incorporated in the synthesized complementary strand; 3' TTTTT single-stranded linker to array surface; dsDNA, one strand shown
In short: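 Polyhistidine-tagged DsRed fusions of transcription factors, joined at the N-terminus, were expressed in E. coli BL21-CodonPlus and isolated on Ni–NTA. They were incubated at 200 nM for 1 h at 25 °C on a custom Agilent array, double-stranded and BSA-blocked, in PBS with 2% BSA, salmon testes DNA and 50 µM zinc acetate. The binding signal is per-feature fluorescence intensity (arbitrary units) read on an Axon 4000B scanner after washing.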

Row | Sequence | binding signal
1 | CTGGTAGTTTGCTGAGCTGCTCATATATATATTCATGCTACGGAGTCACCTAGTGCAG | 8470 fluorescence intensity (a.u.)
2 | AGTATCCAGCTTGCCACTGGTCCGCTTGTCAGTTGTCTCCCGGAGTCACCTAGTGCAG | 8220 fluorescence intensity (a.u.)
3 | ATCCGCCACTTCGCATGCACGCCATCCTCGCCTCGCCGAGCGGAGTCACCTAGTGCAG | 9930 fluorescence intensity (a.u.)
4 | CAAAAGCGTCGTCCTCGTACTCCACGCGCGCATCGGAATCCGGAGTCACCTAGTGCAG | 8430 fluorescence intensity (a.u.)
5 | GCAGATGCGGGCTTGTCTGATTGTTCCCTCGCACTGTTTCCGGAGTCACCTAGTGCAG | 8580 fluorescence intensity (a.u.)
6 | AGATTTATACTATAATTATATTTGACATGTTTTTTTACCTCGGAGTCACCTAGTGCAG | 9240 fluorescence intensity (a.u.)
7 | TCCTTTCATATTCCGCGTATATCATAGGGCCTGTTCACTTCGGAGTCACCTAGTGCAG | 11200 fluorescence intensity (a.u.)
8 | AAATACTTTCCATTTTTCCATCTTGCTTGTCTCTTTTTAACGGAGTCACCTAGTGCAG | 11200 fluorescence intensity (a.u.)
9 | GGGATATATCCTTTGACCGGTCAAACCTCGCGACTTCTTCCGGAGTCACCTAGTGCAG | 18800 fluorescence intensity (a.u.)
10 | TCTCGTTTTACGAATCTGATTCTAATTTCGCGAGGATATTCGGAGTCACCTAGTGCAG | 8380 fluorescence intensity (a.u.)
11 | TGTTGTCGTCGTCCCTCTTCCTTTCCTTTCCTTTCCTTGCCGGAGTCACCTAGTGCAG | 8870 fluorescence intensity (a.u.)
12 | CCGTGGGTATTTCCGTCATTTCGCGCCTAAATCTCACTCCCGGAGTCACCTAGTGCAG | 11300 fluorescence intensity (a.u.)
13 | CAACCATTTCCCGCTATAACTACCCCACTCCACCTTCTGTCGGAGTCACCTAGTGCAG | 8350 fluorescence intensity (a.u.)
14 | GGAGCTCGCCTACGACATCGAGGACTGCATAGATCTGTTCCGGAGTCACCTAGTGCAG | 8230 fluorescence intensity (a.u.)
15 | TCTTACATTATGTTGTTGTACGCGCTTTTAGTATTACTAGCGGAGTCACCTAGTGCAG | 8160 fluorescence intensity (a.u.)
16 | GGTTCGTTCGTTCGCCGCTAGTTGCCACCTTCGCCGCGGCCGGAGTCACCTAGTGCAG | 15200 fluorescence intensity (a.u.)
17 | GCGGCGGTGGGTGGCGGGGCAGCAGACGAGCAAGAAAGAGCGGAGTCACCTAGTGCAG | 9530 fluorescence intensity (a.u.)
18 | TGTTTCGCTCTAGCTCTATCCCTGCCCATGCTTCACCTAGCGGAGTCACCTAGTGCAG | 8860 fluorescence intensity (a.u.)
19 | GGTATTCCAAGATCTCATCCGACTTTGTTTGATCCAGCATCGGAGTCACCTAGTGCAG | 11800 fluorescence intensity (a.u.)
20 | GCTACTGTTCGCGCTTTGTACTATGGTAGGTAGGGTTTTCCGGAGTCACCTAGTGCAG | 8420 fluorescence intensity (a.u.)
21 | TAACTCTGTTGACTTTTGAATGACTAGCAAAGTTAGTACTCGGAGTCACCTAGTGCAG | 10900 fluorescence intensity (a.u.)

Looked up one by one from the entries so far:
Row | Sequence | binding signal
7 | TCCTTTCATATTCCGCGTATATCATAGGGCCTGTTCACTTCGGAGTCACCTAGTGCAG | 11200 fluorescence intensity (a.u.)
16 | GGTTCGTTCGTTCGCCGCTAGTTGCCACCTTCGCCGCGGCCGGAGTCACCTAGTGCAG | 15200 fluorescence intensity (a.u.)

The results go on:

Row | Sequence | binding signal
22 | TCATACGAGATGTCATCCTGTACTGTCCATGTTTGACTTCCGGAGTCACCTAGTGCAG | 10600 fluorescence intensity (a.u.)
23 | CCCCGCAATATCTCCTCCATTCTTGGATTCACCTCAACCTCGGAGTCACCTAGTGCAG | 8560 fluorescence intensity (a.u.)
24 | AAAAAAGCAGTACACGTCGTTGTCTGGACATGTTGTGCACCGGAGTCACCTAGTGCAG | 8240 fluorescence intensity (a.u.)
25 | ATCGTCTCGTCTTCCCACCAGCACCTGCCGCGCTCTCCCCCGGAGTCACCTAGTGCAG | 10200 fluorescence intensity (a.u.)
26 | TATATTATGTCATATGCATTATCATATCTTTTGTGCAGACCGGAGTCACCTAGTGCAG | 9250 fluorescence intensity (a.u.)
27 | CTAGTTTTGTGGTTGGAGGTTGTGAATCATACTCGGACGACGGAGTCACCTAGTGCAG | 10200 fluorescence intensity (a.u.)
28 | CGCGTGTGTGATTGCCTTTTGCTAGCCAAATTGTGGTTTTCGGAGTCACCTAGTGCAG | 12400 fluorescence intensity (a.u.)
29 | GTTTTTCTTTGATCTTCTCAAGTCTCGTGCAAGCAACGACCGGAGTCACCTAGTGCAG | 9640 fluorescence intensity (a.u.)
30 | CCATCATTATCAAATATTTACTGTAACATCACATTATCAACGGAGTCACCTAGTGCAG | 8320 fluorescence intensity (a.u.)
31 | CCCCTTCGTCGTCTTCGTCATCGTCTCCAACCTCCGATTTCGGAGTCACCTAGTGCAG | 8370 fluorescence intensity (a.u.)
32 | TGACTATAATTTTGCCCTTCTAGTTTTTTTTATATATAATCGGAGTCACCTAGTGCAG | 10600 fluorescence intensity (a.u.)
33 | GGGTCGCAAACTTCCAGATTTAACTCTCTCCATTTTGGTGCGGAGTCACCTAGTGCAG | 8610 fluorescence intensity (a.u.)
34 | GCCATTTCCCCACGTTGATGTTGACTGTTTACTGTTTAGACGGAGTCACCTAGTGCAG | 8420 fluorescence intensity (a.u.)
35 | AAGGCGGGAGGTTGAGAGAGAGATAAGGGAGAGAGAGGGGCGGAGTCACCTAGTGCAG | 8120 fluorescence intensity (a.u.)
36 | CCCACGTATTTTTTTTAATCTTTTTTGTTGACTAGGATGCCGGAGTCACCTAGTGCAG | 8390 fluorescence intensity (a.u.)
37 | CTCTCACTCATCTCCCTGGGCAGGCTGGCCGGCGGCGGGGCGGAGTCACCTAGTGCAG | 10200 fluorescence intensity (a.u.)
38 | TTCCTGTTTCTTTTGTTTTTTTCTCTCTTTCACCTCCCTTCGGAGTCACCTAGTGCAG | 11200 fluorescence intensity (a.u.)
39 | AGTATGTTTTATGTTCTTATGGTGTCTAGAAAATGAGTTACGGAGTCACCTAGTGCAG | 10200 fluorescence intensity (a.u.)
40 | ACCGGGCTCTCTGATAACTTCGATGCCACTGCTTTTGCTCCGGAGTCACCTAGTGCAG | 8460 fluorescence intensity (a.u.)
41 | CTCTGGGGTTGGTGGTAGCTTGCTGTCTGCTCTGTTTATGCGGAGTCACCTAGTGCAG | 11300 fluorescence intensity (a.u.)
42 | AAGATCTCCCAGGCCTCGTGTTTTACGTCAACTGGTTGTACGGAGTCACCTAGTGCAG | 8270 fluorescence intensity (a.u.)

Copied from the list.
In binding signal, AAGATCTCCCAGGCCTCGTGTTTTACGTCAACTGGTTGTACGGAGTCACCTAGTGCAG reads 8270 fluorescence intensity (a.u.)
In binding signal, AAGGCGGGAGGTTGAGAGAGAGATAAGGGAGAGAGAGGGGCGGAGTCACCTAGTGCAG reads 8120 fluorescence intensity (a.u.)
